From patent EP1736154A1 (priority 2005, dated 2006)
Results are given in words; binding and its absence hold for the method and conditions named. Binding seen in cells or lysates may run through a third protein. A result given as binding can be weak or reduced; the word gives no strength. Where a sequence is shown, tags or fusion partners need not be part of it.

Assays:
HA-PP1 [1] = assay: co-immunoprecipitation (anti-GFP) from transfected HEK293 cells, Western blot with anti-PP1
HA-PP1 [2] = assay: co-immunoprecipitation (anti-GFP), reblot with anti-PP1 antisera (Figure 1B)

B1: EGFP-tra2-beta1 (protein, UniProt P62995 1-288, looked up, not shown: large carriers)
chain: MSDSGEQNYGERESRSASRSGSAHGSGKSARHTPARSRSKEDSRRSRSKSRSRSESRSRSRRSSRRHYTRSRSRSRSHRRSRSRSYSRDYRRRHSHSHSPMSTRRRHVGNRANPDPNCCLGVFGLSLYTTERDLREVFSKYGPIADVSIVYDQQSRRSRGFAFVYFENVDDAKEAKERANGMELDGRRIRVDFSITKRPHTPTPGIYMGRPTYGSSRRRDYYDRGYDRGYDDRDYYSRSYRGGGGGGGGWRAAQDRDQIYRRRSPSPYYSRGGYRSRSRSRSYSPRRY
In the case of B1, the binding (HA-PP1 [1]) is reported as “binds” and the binding (HA-PP1 [2]) is reported as “binds”.
